# Source: paper PMC4551923
# Results are given in words; binding and its absence hold for the method and conditions named. Some entries that bind do so weakly or less than the wild type.
# T1: Rad23 (yeast (endogenous in BY4742)) (UniProt P32628)
# T1 sequence: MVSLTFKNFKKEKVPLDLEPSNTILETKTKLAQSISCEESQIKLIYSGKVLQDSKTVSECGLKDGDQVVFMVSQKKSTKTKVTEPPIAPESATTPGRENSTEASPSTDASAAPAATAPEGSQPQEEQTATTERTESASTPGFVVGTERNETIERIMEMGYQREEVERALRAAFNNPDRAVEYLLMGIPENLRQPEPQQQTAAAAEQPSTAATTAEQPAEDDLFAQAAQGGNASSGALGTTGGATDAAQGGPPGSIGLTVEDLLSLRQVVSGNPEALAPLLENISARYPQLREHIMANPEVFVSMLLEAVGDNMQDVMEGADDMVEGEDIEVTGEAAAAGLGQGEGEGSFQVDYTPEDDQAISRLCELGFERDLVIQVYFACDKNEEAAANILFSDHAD
# B1: Rad4 (protein, UniProt P14736 1-754)
# chain: MNEDLPKEYFELIRKALNEKEAEKAPLSRRRRVRRKNQPLPDAKKKFKTGLNELPRESVVTVNLDSSDDGVVTVPTDDSVEEIQSSEEDYDSEEFEDVTDGNEVAGVEDISVEIKPSSKRNSDARRTSRNVCSNEERKRRKYFHMLYLVCLMVHGFIRNEWINSKRLSRKLSNLVPEKVFELLHPQKDEELPLRSTRKLLDGLKKCMELWQKHWKITKKYDNVGLYMRTWKEIEMSANNKRKFKTLKRSDFLRAVSKGHGDPDISVQGFVAMLRACNVNARLIMSCQPPDFTNMKIDTSLNGNNAYKDMVKYPIFWCEVWDKFSKKWITVDPVNLKTIEQVRLHSKLAPKGVACCERNMLRYVIAYDRKYGCRDVTRRYAQWMNSKVRKRRITKDDFGEKWFRKVITALHHRKRTKIDDYEDQYFFQRDESEGIPDSVQDLKNHPYYVLEQDIKQTQIVKPGCKECGYLKVHGKVGKVLKVYAKRDIADLKSARQWYMNGRILKTGSRCKKVIKRTVGRPKGEAEEEDERLYSFEDTELYIPPLASASGEITKNTFGNIEVFAPTMIPGNCCLVENPVAIKAARFLGVEFAPAVTSFKFERGSTVKPVLSGIVVAKWLREAIETAIDGIEFIQEDDNRKEHLLGALESWNTLLLKLRIRSKLNSTYGKIAEEEPNVTKEQNIADNHDNTETFMGGGFLPGIANHEARPYSEPSEPEDSLDYVSVDKAEESATDDDVGEDYSDFMKELEMSEESD
# Target: T1, Rad23 (yeast (endogenous in BY4742))
# Test: double ChIP (sequential chromatin immunoprecipitation); formaldehyde cross-linked, sonicated chromatin extracts of unirradiated cells; first IP with Rad23 antibodies, second IP with Rad4 antibodies; read out by qPCR of the DDR2 and DUN1 promoters
binder,measurement,value
B1,binding,binds
